Laboratory results reported in patent EP0315118 (dated 1989).

Assay: general procedure: Boc solid-phase peptide synthesis; Boc-Trp(CHO)-PAM resin; dicyclohexyl carbodiimide (DCC)
Settings: whole synthesis, scale 800 mg of 1.8 g protected peptide resin

With “Cys Ser Cys Ser Ser Leu Met Asp Lys Glu Cys Val Tyr Phe Cys His Leu Asp Ile Ile Trp” the isolated mass was 120 mg.
